Results on 27 compounds are retold here after the supplement of paper PMC4635364.

Where a name gives a salt, the structure may show the parent alone. The list shows a part of the results. This data set is noisy: repeats of one test often differ as much as different tests do.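 ReNCell VM, a human fetal ventral-midbrain neural progenitor line, was differentiated without mitogens. Blinded raters scored images stained for doublecortin (early neurons) or tyrosine hydroxylase (dopaminergic neurons) against untreated wells (0 = no change). Scores were averaged across repeats and both raters, and compounds averaging 2 or more were selected as hits for retesting.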

The test system of one experiment is ReNCell VM. Kind of experiment: dopaminergic neuron differentiation score (TH+ cell fraction vs untreated, manual image score) (score (0 to 3)); higher = more TH+ dopaminergic neuron differentiation. As to conditions: library: Spectrum; 2 uM; 4 weeks; BDNF 10 ng/ml + GDNF 10 ng/ml.
In the case of `O=C(c1cccnc1)N1CCOCC1`, the “dopaminergic neuron differentiation score” value is inactive: 0.

Consider `Cc1c(N(C)C)c(=O)n(-c2ccccc2)n1C`, for which the “dopaminergic neuron differentiation score” value was inactive: 0.

In the case of `CN(C)CCOC(C)(c1ccccc1)c1ccccn1` (configuration not stated), the “dopaminergic neuron differentiation score” value was inactive: 0.

On to `COC(=O)CC1C(C)(C)C(OC(C)=O)[C@@H]2[C@@H](OC(C)=O)[C@]34O[C@@]2(O)[C@]1(C)C3CC[C@]1(C)C4=CC(=O)O[C@H]1c1ccoc1` (some centres not stated), for which the “dopaminergic neuron differentiation score” value was inactive: 1.

`COc1cc(C(=O)NCc2ccc(OCCN(C)C)cc2)cc(OC)c1OC`: the “dopaminergic neuron differentiation score” value was inactive: 0.

For `COC(=O)/C=C/C(=O)OC`, the “dopaminergic neuron differentiation score” value was inactive: 0.

In the case of `O=C(O)c1cc(=O)c2c(OCC(O)COc3cccc4oc(C(=O)O)cc(=O)c34)cccc2o1`, the “dopaminergic neuron differentiation score” value is inactive: 0.

As to `O=C(Nc1ccccc1)c1ccccc1O`, the “dopaminergic neuron differentiation score” value was inactive: 0.

As to `CNc1ccccc1C(=O)N1CCc2c([nH]c3ccccc23)C1=O`, the “dopaminergic neuron differentiation score” value is inactive: 0.

As for `Nc1c2c(nc3ccccc13)CCCC2`, the “dopaminergic neuron differentiation score” value is inactive: 0.

Regarding `CN1C(=O)OC(C)(C)C1=O`, the “dopaminergic neuron differentiation score” value was inactive: 0.

`COc1ccc(-c2cc(=O)c3c(OC)c(OC)c(OC)cc3o2)cc1OC`: the “dopaminergic neuron differentiation score” value is active: 3.

For `NS(=O)(=O)c1cc2c(cc1Cl)N=CNS2(=O)=O`, the “dopaminergic neuron differentiation score” value was inactive: 0.

For the compound `OCCOCCN1CCN(C2=Nc3ccccc3Sc3ccccc32)CC1`, the “dopaminergic neuron differentiation score” value is inactive: 0.

As for `CO[C@@]1(NC(=O)C(C(=O)O)c2ccc(O)cc2)C(=O)N2C(C(=O)O)=C(CSc3nnnn3C)CO[C@@H]21` (some centres not stated), the “dopaminergic neuron differentiation score” value is inactive: 0.

Turning to `CCCCCN(CCCCC)C(=O)C(CCC(=O)O)NC(=O)c1ccc(Cl)c(Cl)c1` (configuration not stated), the “dopaminergic neuron differentiation score” value is inactive: 0.

Take `NC(=O)c1ncn([C@@H]2O[C@H](CO)[C@@H](O)[C@H]2O)c1N`: the “dopaminergic neuron differentiation score” value is inactive: 0.

With `C=CC1=C(C)c2cc3[nH]c(cc4nc(cc5[nH]c(cc1n2)c(C)c5CCC(=O)O)C(CCC(=O)O)=C4C)c(C)c3C=C`, the “dopaminergic neuron differentiation score” value was inactive: 0.

On to `COc1ccc(-c2coc3c(OC)c(OC)cc(O)c3c2=O)cc1`, for which the “dopaminergic neuron differentiation score” value is inactive: 1.

Regarding `COc1ccc(CN2CCN(C(c3ccc(F)cc3)c3ccc(F)cc3)CC2)c(OC)c1OC`, the “dopaminergic neuron differentiation score” value is inactive: 0.

For `c1ccc2c(c1)CN1CCCC1=N2`, the “dopaminergic neuron differentiation score” value is inactive: 0.

For the compound `COc1cc2nc(N3CCN(C(=O)c4ccco4)CC3)nc(N)c2cc1OC`, the “dopaminergic neuron differentiation score” value is inactive: 0.

With `CC(=O)O[C@H]1C[C@@H](OC(C)=O)C(C)(C)[C@@H]2C[C@@H](OC(C)=O)[C@]3(C)[C@H](CC[C@@]4(C)[C@H](c5ccoc5)OC(=O)[C@H]5O[C@@]534)[C@@]12C`, the “dopaminergic neuron differentiation score” value was inactive: 1.

The same experiment, now with this note: library: Tocriscreen; 2 uM; 4 weeks; BDNF 10 ng/ml + GDNF 10 ng/ml.
Turning to `O=C(CCCCCN1C(=O)c2cccc3cccc(c23)C1=O)NO` [Scriptaid], the “dopaminergic neuron differentiation score” value is inactive: 0.

As for `c1ccc2sc(N3CCN(Cc4ccc5c(c4)OCO5)CC3)nc2c1` [2-[1-(4-Piperonyl)piperazinyl]benzothiazole], the “dopaminergic neuron differentiation score” value is active: 3.

`CCc1c2c(nc3ccc(O)cc13)-c1cc3c(c(=O)n1C2)COC(=O)[C@]3(O)CC`: the “dopaminergic neuron differentiation score” value was inactive: 0.

Turning to `Fc1ccc([C@@H]2CCNC[C@H]2COc2ccc3c(c2)OCO3)cc1` [Paroxetine maleate], the “dopaminergic neuron differentiation score” value is inactive: 0.
